For assay [1], the target named is Bcl2‐associated X protein (BAX), endogenous in AC16 cells (human (endogenous in AC16)) (UniProt Q07812). As to the kind of experiment: co-IP; endogenous proteins in lysates (IP lysis buffer: 50 mM HEPES pH 7.4, 150 mM NaCl, 0.1% Triton X-100, 2 mM EGTA) of AC16 cells and primary WT cardiocytes, Ang II (0.2 µM) for 48 h; Anti-MANF (Abcam ab67271) or Anti-BAX (Abcam ab182733) overnight at 4 °C, protein A/G plus-agarose; immunoblot.

Protein sequences, listed by entry. Tags and fused reporters are not part of them.
UniProt Q07812: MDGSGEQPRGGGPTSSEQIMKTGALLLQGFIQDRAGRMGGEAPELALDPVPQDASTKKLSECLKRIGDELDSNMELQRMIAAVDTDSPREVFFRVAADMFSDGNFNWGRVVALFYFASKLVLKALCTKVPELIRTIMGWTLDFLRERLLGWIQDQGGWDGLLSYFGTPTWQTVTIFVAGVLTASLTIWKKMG
UniProt Q07813: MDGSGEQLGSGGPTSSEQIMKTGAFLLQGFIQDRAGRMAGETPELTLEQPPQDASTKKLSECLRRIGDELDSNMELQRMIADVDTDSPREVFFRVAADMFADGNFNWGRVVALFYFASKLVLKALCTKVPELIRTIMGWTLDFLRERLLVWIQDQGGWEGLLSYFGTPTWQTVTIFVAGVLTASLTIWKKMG
UniProt P12956: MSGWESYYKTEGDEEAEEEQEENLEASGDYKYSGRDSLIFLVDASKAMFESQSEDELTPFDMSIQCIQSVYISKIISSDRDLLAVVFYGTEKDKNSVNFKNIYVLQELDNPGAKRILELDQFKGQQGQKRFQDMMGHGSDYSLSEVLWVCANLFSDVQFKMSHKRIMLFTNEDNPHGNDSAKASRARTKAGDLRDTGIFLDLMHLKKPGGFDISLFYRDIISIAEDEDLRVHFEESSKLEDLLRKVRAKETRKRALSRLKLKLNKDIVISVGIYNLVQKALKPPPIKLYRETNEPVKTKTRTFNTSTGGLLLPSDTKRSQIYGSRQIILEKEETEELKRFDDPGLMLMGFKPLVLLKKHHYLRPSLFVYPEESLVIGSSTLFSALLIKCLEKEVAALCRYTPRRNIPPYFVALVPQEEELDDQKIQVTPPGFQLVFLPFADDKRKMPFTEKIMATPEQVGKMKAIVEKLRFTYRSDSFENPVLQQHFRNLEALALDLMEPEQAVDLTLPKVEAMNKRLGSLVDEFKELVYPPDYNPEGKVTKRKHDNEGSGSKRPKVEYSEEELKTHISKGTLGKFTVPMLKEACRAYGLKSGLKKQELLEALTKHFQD
UniProt P23475: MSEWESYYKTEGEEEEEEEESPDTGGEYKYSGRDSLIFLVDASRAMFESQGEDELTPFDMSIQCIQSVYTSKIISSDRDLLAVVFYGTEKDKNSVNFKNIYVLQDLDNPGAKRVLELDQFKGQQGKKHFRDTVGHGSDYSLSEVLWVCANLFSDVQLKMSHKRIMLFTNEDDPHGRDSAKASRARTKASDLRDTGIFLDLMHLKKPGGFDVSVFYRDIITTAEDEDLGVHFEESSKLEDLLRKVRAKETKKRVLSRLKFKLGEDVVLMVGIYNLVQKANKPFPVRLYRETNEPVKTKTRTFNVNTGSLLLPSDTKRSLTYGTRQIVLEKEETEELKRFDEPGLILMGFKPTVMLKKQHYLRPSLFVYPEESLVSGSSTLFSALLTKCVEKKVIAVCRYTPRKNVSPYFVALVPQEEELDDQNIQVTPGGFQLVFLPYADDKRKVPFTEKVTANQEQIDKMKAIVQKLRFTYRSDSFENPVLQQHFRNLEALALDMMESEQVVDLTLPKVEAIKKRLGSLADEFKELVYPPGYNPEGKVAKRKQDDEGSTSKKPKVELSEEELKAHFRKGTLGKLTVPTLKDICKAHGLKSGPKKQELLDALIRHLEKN

In assay [2] the target is Bcl2‐associated X protein (BAX), endogenous in primary WT mouse cardiocytes (mouse (endogenous in primary cardiocytes)) (UniProt Q07813). The description is as above.

No constants are given. Whether binding was seen depends on the method and setting. In cells and extracts the contact can be indirect. Some entries that bind do so weakly or less than the wild type.

Take “Ku70, endogenous in AC16 cells (from UniProt P12956 1-609)”: in assay [1], the binding result is listed as “binds”.
As to “Ku70, endogenous in primary WT mouse cardiocytes (from UniProt P23475 1-608)”, the binding result in assay [2] was “binds”.

Values taken from paper PMC12561191.
